Laboratory results from the supplement of paper PMC4604168 (melanoma cell lines).
The other results are listed elsewhere or left out. Single values are uncertain, as repeats are few or missing.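 Imaging used 1,536-well plates; nuclei positive for cleaved PARP by antibody were divided by total DNA-stained nuclei to yield the apoptosis fraction. Doses for screening kept most cells viable, and cell lines differ markedly in resting and induced cleaved-PARP levels.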

Columns and labels:
Assay in all cases: cleaved PARP positive nuclei fraction relative to DMSO control; melanoma cells; higher = more apoptosis
Conditions in all cases: library dose: low library concentration; 72 h
[1] = tested on: COLO792
[2] = tested on: COLO800
[3] = tested on: COLO829
[4] = tested on: G361
[5] = tested on: IPC-298
[6] = tested on: IST-MEL1
[7] = tested on: LB2518-MEL
[8] = tested on: LOXIMVI
[9] = tested on: MEL-HO

SMILES	cleaved PARP positive nuclei fraction [1]	cleaved PARP positive nuclei fraction [2]	cleaved PARP positive nuclei fraction [3]	cleaved PARP positive nuclei fraction [4]	cleaved PARP positive nuclei fraction [5]	cleaved PARP positive nuclei fraction [6]	cleaved PARP positive nuclei fraction [7]	cleaved PARP positive nuclei fraction [8]	cleaved PARP positive nuclei fraction [9]
CN1CCN(c2ccc3nc(-c4c(N)c5c(F)cccc5[nH]c4=O)[nH]c3c2)CC1 [Dovitinib] + O=C(Oc1ccc([N+](=O)[O-])cc1)N1CCC(C(O)(c2ccc3c(c2)OCO3)c2ccc3c(c2)OCO3)CC1 [JZL184] (first compound 0.1 µM, partner dose 1 µM)	96.7%	76.2%	103%	247%	88.1%	87.3%	70.9%	76.9%	–
Cn1cc(C2=C(c3cn(C4CCN(Cc5ccccn5)CC4)c4ccccc34)C(=O)NC2=O)c2ccccc21 [Enzastaurin] + Cc1cc(N2CCOCC2)cc2[nH]c(-c3c(NC[C@@H](O)c4cccc(Cl)c4)cc[nH]c3=O)nc12 [BMS536924] (first compound 0.8 µM, partner dose 0.2 µM)	51.1%	90.3%	110%	84%	45.6%	99.7%	106%	77.8%	174%
Cn1cc(C2=C(c3cn(C4CCN(Cc5ccccn5)CC4)c4ccccc34)C(=O)NC2=O)c2ccccc21 [Enzastaurin] + O=c1cc(-c2cccc3c2Sc2ccccc2S3)oc(N2CCOCC2)c1 [KU55933] (first compound 0.8 µM, partner dose 1 µM)	43%	114%	105%	233%	46.9%	106%	117%	159%	–
Cn1cc(C2=C(c3cn(C4CCN(Cc5ccccn5)CC4)c4ccccc34)C(=O)NC2=O)c2ccccc21 [Enzastaurin] + NCC(=O)Nc1ccc(-n2nc(C(F)(F)F)cc2-c2ccc3c(ccc4ccccc43)c2)cc1 [OSU03012] (first compound 0.8 µM, partner dose 1 µM)	93.5%	261%	118%	68.1%	127%	347%	47.6%	165%	131%
CCN(CC)CCNC(=O)c1c(C)[nH]c(/C=C2\C(=O)Nc3ccc(F)cc32)c1C [sunitinib] + O=C(Oc1ccc([N+](=O)[O-])cc1)N1CCC(C(O)(c2ccc3c(c2)OCO3)c2ccc3c(c2)OCO3)CC1 [JZL184] (first compound 0.4 µM, partner dose 1 µM)	101%	163%	30.6%	276%	132%	181%	136%	276%	–
Cn1cc(C2=C(c3cn(C4CCN(Cc5ccccn5)CC4)c4ccccc34)C(=O)NC2=O)c2ccccc21 [Enzastaurin] + Oc1cc(-c2nc(-c3ccccc3)[nH]c2-c2ccncc2)ccc1Cl [L779450] (first compound 0.8 µM, partner dose 0.2 µM)	103%	27.3%	73.6%	110%	98.2%	177%	70.7%	20%	–
CS(=O)(=O)CCNCc1ccc(-c2ccc3ncnc(Nc4ccc(OCc5cccc(F)c5)c(Cl)c4)c3c2)o1 [lapatinib] + C/C(O)=C(\C#N)C(=O)Nc1cc(Br)ccc1Br [LFM-A13] (first compound 0.8 µM, partner dose 2 µM)	206%	145%	117%	92.6%	92.3%	78.8%	269%	101%	–
Cn1cnc2c(F)c(Nc3ccc(Br)cc3Cl)c(C(=O)NOCCO)cc21 [selumetinib] + O=C(Oc1ccc([N+](=O)[O-])cc1)N1CCC(C(O)(c2ccc3c(c2)OCO3)c2ccc3c(c2)OCO3)CC1 [JZL184] (first compound 0.015 µM, partner dose 1 µM)	63.1%	174%	117%	98.1%	131%	176%	199%	258%	–
C=CCNC1=C2C[C@@H](C)C[C@H](OC)[C@H](O)[C@@H](C)/C=C(\C)[C@H](OC(N)=O)[C@@H](OC)/C=C\C=C(/C)C(=O)NC(=CC1=O)C2=O [Tanespimycin] + Cc1cc(SCc2sc(-c3ccc(C(F)(F)F)c(F)c3)nc2C)ccc1OCC(=O)O [GW0742] (first compound 0.002 µM, partner dose 2 µM)	50.9%	25.6%	74.3%	119%	182%	72%	46.6%	108%	–
C[C@@H](N)c1ccc(C(=O)Nc2ccnc3[nH]ccc23)cc1 + C/C(O)=C(\C#N)C(=O)Nc1cc(Br)ccc1Br [LFM-A13] (first compound 0.4 µM, partner dose 2 µM)	171%	40.1%	90%	91.9%	32.9%	110%	134%	118%	–
Cc1ccc(Nc2nccc(N(C)c3ccc4c(C)n(C)nc4c3)n2)cc1S(N)(=O)=O [Pazopanib] + Cc1cc(SCc2sc(-c3ccc(C(F)(F)F)c(F)c3)nc2C)ccc1OCC(=O)O [GW0742] (first compound 0.4 µM, partner dose 2 µM)	52.4%	36.5%	85.6%	98.4%	55%	58.2%	34.7%	108%	–
NC1(c2ccc(-c3nc4ccn5c(=O)[nH]nc5c4cc3-c3ccccc3)cc2)CCC1 + Cc1cc(SCc2sc(-c3ccc(C(F)(F)F)c(F)c3)nc2C)ccc1OCC(=O)O [GW0742] (first compound 0.4 µM, partner dose 2 µM)	124%	36.9%	81.9%	130%	94.2%	166%	78.9%	39.6%	–
Cn1cc(C2=C(c3cn(C4CCN(Cc5ccccn5)CC4)c4ccccc34)C(=O)NC2=O)c2ccccc21 [Enzastaurin] + COc1ccc(-c2ccc3c(N4CCOCC4)nc(N4C[C@@H](C)O[C@@H](C)C4)nc3n2)cc1CO [KU0063794] (first compound 0.8 µM, partner dose 0.02 µM)	113%	206%	56.2%	66.8%	45.3%	202%	162%	108%	–
Nc1ccn([C@@H]2O[C@H](CO)[C@@H](O)C2(F)F)c(=O)n1 [gemcitabine] + C/C(O)=C(\C#N)C(=O)Nc1cc(Br)ccc1Br [LFM-A13] (first compound 0.0004 µM, partner dose 2 µM)	123%	226%	248%	190%	158%	118%	39.5%	69.1%	–
N.N.[Cl][Pt][Cl] [cisplatin] + COc1ccc(COc2ccc(Cc3cnc(N)nc3N)cc2OC)cc1 [GW2580] (first compound 1.6 µM, partner dose 1 µM)	135%	61.1%	97.6%	144%	95.4%	142%	64.6%	78.8%	–
O=C(Nc1cc(C(F)(F)F)cc(C(F)(F)F)c1)c1cc(Cl)ccc1O + O=C(Oc1ccc([N+](=O)[O-])cc1)N1CCC(C(O)(c2ccc3c(c2)OCO3)c2ccc3c(c2)OCO3)CC1 [JZL184] (first compound 0.016 µM, partner dose 1 µM)	75.8%	129%	187%	95.1%	116%	29%	35.7%	165%	–
CNC(=O)c1cc(Oc2ccc(NC(=O)Nc3ccc(Cl)c(C(F)(F)F)c3)cc2)ccn1 [sorafenib] + C/C(O)=C(\C#N)C(=O)Nc1cc(Br)ccc1Br [LFM-A13] (first compound 0.4 µM, partner dose 2 µM)	48.8%	146%	52.7%	128%	89.4%	108%	31.2%	41.3%	–
NC(=O)c1ccc(N(C(N)=O)c2c(F)cccc2F)nc1-c1ccc(F)cc1F + Cc1cc(SCc2sc(-c3ccc(C(F)(F)F)c(F)c3)nc2C)ccc1OCC(=O)O [GW0742] (first compound 0.4 µM, partner dose 2 µM)	265%	55.4%	126%	119%	36.1%	98.4%	72%	89.5%	–
Cn1cc(C2=C(c3cn(C4CCN(Cc5ccccn5)CC4)c4ccccc34)C(=O)NC2=O)c2ccccc21 [Enzastaurin] + O=C(O)C(=O)Nc1sc2c(c1C(=O)O)CCNC2 [TCS401] (first compound 0.8 µM, partner dose 1.66667 µM)	63.3%	122%	74.3%	107%	148%	192%	152%	86%	–
N.N.[Cl][Pt][Cl] [cisplatin] + CCCCCCCCCCCC1=C(O)C(=O)C=C(O)C1=O [Embelin] (first compound 1.6 µM, partner dose 1.2 µM)	107%	58.6%	113%	100%	86.9%	163%	72%	67.2%	–
N.N.[Cl][Pt][Cl] [cisplatin] + COC(=O)c1sccc1S(=O)(=O)Nc1ccc(Nc2ccccc2)cc1OC [GSK0660] (first compound 1.6 µM, partner dose 1 µM)	173%	62.5%	141%	41.3%	90.3%	218%	313%	159%	–
CN(c1ncccc1CNc1nc(Nc2ccc3c(c2)CC(=O)N3)ncc1C(F)(F)F)S(C)(=O)=O + O=C(Oc1ccc([N+](=O)[O-])cc1)N1CCC(C(O)(c2ccc3c(c2)OCO3)c2ccc3c(c2)OCO3)CC1 [JZL184] (first compound 0.08 µM, partner dose 1 µM)	117%	38.2%	84.6%	58%	46.7%	64.9%	65%	69.8%	–
C[C@]12O[C@H](C[C@]1(O)CO)n1c3ccccc3c3c4c(c5c6ccccc6n2c5c31)CNC4=O [Lestaurtinib] + CC1(C)NC(=O)N(c2ccc([N+](=O)[O-])c(C(F)(F)F)c2)C1=O [nilutamide] (first compound 0.004 µM, partner dose 1 µM)	111%	87.9%	54.2%	60.3%	24.1%	90.2%	102%	61.7%	72.5%

Reformatted bar-delimited: part of the list above.
SMILES | cleaved PARP positive nuclei fraction [1] | cleaved PARP positive nuclei fraction [2] | cleaved PARP positive nuclei fraction [3] | cleaved PARP positive nuclei fraction [4] | cleaved PARP positive nuclei fraction [5] | cleaved PARP positive nuclei fraction [6] | cleaved PARP positive nuclei fraction [7] | cleaved PARP positive nuclei fraction [8] | cleaved PARP positive nuclei fraction [9]
Cc1ccc(Nc2nccc(N(C)c3ccc4c(C)n(C)nc4c3)n2)cc1S(N)(=O)=O [Pazopanib] + Cc1cc(SCc2sc(-c3ccc(C(F)(F)F)c(F)c3)nc2C)ccc1OCC(=O)O [GW0742] (first compound 0.4 µM, partner dose 2 µM) | 52.4% | 36.5% | 85.6% | 98.4% | 55% | 58.2% | 34.7% | 108% | –
N.N.[Cl][Pt][Cl] [cisplatin] + CCCCCCCCCCCC1=C(O)C(=O)C=C(O)C1=O [Embelin] (first compound 1.6 µM, partner dose 1.2 µM) | 107% | 58.6% | 113% | 100% | 86.9% | 163% | 72% | 67.2% | –
